From the supplement of paper PMC12823440, “Inhibitors supercharge kinase turnover through native proteolytic circuits” (Nature, 2025)
Structures can show the parent of a compound that is named as a salt. Some of the results follow. Hit calls seldom repeat between salt and free forms of one compound.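 Kinases were expressed as nanoluciferase fusions in K562 cells and luminescence was read every 4 h between 2 and 18 h as percent of control, DMSO set to 100% and a positive control to 0%. A time point counts as decreased when the signal drops significantly (2 sigma). The hit call is the authors' own, does not follow from the count of time points alone, and its rule is not shown.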

Amino acid sequences for entries named in this document (tags omitted). A change or cut given only in a name is not applied to a line headed by its entry.
UniProt Q9Y616: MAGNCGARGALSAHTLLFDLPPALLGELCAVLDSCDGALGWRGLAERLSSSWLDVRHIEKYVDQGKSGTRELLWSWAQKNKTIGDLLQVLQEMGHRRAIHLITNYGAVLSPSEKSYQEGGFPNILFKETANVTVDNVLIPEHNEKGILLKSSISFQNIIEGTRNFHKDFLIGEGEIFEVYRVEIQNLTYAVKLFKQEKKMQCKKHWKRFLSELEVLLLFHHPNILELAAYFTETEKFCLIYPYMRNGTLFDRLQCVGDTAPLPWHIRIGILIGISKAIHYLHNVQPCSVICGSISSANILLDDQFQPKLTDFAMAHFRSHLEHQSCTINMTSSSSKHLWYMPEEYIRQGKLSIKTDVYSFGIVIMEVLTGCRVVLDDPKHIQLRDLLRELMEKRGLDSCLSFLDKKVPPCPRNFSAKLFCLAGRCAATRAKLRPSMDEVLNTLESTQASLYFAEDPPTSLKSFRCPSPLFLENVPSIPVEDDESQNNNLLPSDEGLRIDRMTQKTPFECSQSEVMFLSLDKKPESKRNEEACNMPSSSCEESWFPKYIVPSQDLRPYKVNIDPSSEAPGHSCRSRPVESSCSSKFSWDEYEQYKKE
UniProt P07948: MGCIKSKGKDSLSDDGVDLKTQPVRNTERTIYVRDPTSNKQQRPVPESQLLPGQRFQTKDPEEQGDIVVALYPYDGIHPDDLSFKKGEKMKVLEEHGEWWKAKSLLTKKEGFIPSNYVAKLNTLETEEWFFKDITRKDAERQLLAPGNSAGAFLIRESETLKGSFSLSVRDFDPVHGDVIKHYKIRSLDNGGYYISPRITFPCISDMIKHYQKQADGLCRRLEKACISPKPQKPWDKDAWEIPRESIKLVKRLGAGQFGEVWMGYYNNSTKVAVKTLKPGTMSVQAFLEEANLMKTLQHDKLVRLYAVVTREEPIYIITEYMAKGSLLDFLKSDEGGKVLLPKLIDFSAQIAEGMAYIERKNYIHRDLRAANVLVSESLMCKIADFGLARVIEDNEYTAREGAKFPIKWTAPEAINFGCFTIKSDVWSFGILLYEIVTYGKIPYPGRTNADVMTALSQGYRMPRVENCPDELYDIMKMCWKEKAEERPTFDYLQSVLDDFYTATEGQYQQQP
UniProt Q12851: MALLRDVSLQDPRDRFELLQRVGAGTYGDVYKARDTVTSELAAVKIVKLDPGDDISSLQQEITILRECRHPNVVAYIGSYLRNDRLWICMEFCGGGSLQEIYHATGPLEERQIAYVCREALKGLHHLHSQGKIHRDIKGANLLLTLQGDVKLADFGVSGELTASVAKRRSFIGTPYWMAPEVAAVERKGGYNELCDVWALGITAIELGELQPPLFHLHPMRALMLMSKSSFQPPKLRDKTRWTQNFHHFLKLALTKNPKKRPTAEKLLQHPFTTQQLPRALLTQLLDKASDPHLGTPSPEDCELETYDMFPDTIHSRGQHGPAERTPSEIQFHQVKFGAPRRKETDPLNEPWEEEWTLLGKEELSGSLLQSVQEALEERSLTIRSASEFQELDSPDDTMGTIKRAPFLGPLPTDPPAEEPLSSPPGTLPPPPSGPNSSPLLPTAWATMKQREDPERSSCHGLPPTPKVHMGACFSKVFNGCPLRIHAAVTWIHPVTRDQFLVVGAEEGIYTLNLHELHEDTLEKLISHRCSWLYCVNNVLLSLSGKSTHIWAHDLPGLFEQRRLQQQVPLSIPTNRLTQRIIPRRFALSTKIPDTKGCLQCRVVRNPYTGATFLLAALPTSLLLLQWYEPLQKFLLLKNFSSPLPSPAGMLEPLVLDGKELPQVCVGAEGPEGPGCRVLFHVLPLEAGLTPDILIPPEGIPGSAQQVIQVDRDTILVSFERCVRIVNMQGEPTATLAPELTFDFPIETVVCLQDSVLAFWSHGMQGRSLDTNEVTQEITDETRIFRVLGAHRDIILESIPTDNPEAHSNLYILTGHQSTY
UniProt P49137, whole entry, looked up: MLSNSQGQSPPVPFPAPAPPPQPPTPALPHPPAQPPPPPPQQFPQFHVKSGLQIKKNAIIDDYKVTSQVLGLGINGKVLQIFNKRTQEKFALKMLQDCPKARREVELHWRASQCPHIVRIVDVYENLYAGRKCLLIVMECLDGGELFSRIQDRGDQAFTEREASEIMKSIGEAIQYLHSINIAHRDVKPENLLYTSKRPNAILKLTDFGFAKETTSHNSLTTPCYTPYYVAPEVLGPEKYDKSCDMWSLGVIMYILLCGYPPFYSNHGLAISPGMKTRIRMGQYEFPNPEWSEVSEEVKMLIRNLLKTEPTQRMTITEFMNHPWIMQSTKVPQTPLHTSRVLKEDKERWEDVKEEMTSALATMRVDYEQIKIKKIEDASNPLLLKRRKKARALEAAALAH
UniProt Q9BUB5: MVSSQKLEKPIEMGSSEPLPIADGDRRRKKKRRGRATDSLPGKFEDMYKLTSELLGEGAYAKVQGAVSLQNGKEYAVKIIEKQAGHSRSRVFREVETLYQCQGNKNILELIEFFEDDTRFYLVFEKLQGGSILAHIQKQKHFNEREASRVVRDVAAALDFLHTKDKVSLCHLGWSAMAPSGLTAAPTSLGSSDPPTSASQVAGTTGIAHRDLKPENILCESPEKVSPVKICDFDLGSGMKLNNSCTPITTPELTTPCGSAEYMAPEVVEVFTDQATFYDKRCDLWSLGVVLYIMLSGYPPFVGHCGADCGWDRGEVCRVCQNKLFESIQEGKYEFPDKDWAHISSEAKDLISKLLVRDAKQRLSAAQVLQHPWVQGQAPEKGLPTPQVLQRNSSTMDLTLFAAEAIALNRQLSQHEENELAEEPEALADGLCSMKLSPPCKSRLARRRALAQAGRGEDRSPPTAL
UniProt Q16620, whole entry, looked up: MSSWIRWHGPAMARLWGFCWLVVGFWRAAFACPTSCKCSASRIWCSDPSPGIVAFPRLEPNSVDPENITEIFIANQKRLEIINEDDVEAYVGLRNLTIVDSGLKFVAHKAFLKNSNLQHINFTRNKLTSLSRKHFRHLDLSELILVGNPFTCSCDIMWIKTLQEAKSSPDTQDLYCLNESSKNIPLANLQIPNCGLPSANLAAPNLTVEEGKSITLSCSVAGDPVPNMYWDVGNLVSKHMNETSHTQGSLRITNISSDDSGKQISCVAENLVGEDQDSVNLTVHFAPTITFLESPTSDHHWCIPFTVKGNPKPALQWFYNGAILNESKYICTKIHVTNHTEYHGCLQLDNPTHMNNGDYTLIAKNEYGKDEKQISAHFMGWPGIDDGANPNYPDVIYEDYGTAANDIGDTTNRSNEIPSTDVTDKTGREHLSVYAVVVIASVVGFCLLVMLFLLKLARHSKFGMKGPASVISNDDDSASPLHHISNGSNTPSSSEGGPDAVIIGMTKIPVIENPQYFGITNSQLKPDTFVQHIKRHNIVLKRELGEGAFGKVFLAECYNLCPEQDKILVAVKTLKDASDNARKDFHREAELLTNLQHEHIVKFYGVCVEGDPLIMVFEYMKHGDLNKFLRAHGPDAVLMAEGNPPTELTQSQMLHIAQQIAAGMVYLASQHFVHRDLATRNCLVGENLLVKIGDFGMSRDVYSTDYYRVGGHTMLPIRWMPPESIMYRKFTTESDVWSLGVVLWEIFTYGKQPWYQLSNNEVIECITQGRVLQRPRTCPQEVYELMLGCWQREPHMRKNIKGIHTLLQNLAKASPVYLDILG
UniProt Q16288, whole entry, looked up: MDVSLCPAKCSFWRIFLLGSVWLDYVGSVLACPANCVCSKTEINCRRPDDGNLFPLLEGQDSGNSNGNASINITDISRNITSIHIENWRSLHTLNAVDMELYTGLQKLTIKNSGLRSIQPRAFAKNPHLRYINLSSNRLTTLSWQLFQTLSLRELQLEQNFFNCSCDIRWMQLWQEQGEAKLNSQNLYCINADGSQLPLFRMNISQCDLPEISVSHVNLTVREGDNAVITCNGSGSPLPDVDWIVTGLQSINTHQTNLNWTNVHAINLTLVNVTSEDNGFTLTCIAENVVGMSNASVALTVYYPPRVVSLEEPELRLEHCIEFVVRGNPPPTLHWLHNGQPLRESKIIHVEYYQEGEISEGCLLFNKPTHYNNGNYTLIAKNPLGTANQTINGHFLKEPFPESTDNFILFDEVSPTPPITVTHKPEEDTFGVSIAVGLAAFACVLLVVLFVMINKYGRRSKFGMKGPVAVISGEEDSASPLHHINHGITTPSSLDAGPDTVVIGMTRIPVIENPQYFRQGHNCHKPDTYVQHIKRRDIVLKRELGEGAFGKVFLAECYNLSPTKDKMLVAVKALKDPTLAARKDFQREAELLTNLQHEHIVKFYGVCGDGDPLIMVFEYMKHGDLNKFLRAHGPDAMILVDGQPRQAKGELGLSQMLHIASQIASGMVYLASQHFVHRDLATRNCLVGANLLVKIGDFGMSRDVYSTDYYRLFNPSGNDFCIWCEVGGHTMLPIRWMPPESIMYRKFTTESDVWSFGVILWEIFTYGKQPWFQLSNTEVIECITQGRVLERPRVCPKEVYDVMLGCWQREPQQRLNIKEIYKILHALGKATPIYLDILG
UniProt O96013: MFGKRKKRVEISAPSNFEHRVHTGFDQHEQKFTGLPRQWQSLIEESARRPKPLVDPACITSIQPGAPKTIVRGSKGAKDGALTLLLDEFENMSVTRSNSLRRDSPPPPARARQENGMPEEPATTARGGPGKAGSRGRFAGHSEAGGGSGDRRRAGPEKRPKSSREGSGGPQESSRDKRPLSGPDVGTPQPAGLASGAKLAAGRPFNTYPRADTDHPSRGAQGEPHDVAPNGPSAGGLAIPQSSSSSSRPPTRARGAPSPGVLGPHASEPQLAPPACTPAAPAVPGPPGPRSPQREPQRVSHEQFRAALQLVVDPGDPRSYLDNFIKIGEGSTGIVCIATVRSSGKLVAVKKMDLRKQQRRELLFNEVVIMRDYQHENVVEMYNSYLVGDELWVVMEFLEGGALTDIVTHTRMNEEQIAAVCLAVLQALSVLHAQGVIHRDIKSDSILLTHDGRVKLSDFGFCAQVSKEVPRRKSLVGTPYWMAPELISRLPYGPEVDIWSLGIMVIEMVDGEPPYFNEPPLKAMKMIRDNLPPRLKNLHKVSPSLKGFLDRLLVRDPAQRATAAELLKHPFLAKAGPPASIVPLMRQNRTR
UniProt Q96KB5: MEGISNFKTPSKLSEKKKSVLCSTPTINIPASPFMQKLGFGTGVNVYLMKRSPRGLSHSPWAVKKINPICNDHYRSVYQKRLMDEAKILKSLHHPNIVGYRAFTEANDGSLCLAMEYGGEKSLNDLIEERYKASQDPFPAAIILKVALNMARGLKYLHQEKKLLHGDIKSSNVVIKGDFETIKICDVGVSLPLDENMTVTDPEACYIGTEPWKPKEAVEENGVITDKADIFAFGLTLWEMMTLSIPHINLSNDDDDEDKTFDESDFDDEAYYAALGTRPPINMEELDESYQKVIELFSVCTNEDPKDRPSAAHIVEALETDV
UniProt P09619, whole entry: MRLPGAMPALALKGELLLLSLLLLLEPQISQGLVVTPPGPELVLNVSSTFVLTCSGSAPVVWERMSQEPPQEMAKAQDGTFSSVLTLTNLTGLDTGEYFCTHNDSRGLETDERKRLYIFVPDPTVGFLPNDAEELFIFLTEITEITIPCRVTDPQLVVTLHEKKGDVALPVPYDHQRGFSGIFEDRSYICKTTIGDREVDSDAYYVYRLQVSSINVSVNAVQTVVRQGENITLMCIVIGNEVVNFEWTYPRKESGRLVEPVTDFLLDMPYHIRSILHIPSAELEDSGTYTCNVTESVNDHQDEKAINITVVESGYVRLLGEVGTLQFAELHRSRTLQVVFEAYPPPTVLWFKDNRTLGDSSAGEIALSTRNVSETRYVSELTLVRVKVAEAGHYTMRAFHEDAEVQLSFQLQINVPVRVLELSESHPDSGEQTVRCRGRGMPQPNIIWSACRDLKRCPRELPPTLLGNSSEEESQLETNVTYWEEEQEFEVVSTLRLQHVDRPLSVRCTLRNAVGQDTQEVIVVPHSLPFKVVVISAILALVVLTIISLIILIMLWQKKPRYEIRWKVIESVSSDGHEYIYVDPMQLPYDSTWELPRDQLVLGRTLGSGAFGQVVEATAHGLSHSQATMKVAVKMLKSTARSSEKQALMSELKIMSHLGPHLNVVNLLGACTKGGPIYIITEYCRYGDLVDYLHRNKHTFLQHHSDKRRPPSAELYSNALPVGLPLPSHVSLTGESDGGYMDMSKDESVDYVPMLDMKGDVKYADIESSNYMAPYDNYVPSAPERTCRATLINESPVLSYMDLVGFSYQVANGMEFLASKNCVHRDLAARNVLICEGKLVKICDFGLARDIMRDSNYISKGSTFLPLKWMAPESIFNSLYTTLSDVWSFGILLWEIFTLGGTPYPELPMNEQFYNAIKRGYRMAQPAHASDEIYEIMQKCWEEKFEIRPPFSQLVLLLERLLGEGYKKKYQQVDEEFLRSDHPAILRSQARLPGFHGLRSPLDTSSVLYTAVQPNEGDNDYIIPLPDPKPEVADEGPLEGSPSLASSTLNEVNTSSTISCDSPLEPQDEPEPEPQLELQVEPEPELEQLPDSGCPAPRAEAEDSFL

Columns and labels:
Assay in all cases: kinase-Nluc reporter destabilization hit call (1 = scored as downregulated) (binary); higher = compound decreases kinase abundance
Conditions in all cases: K562; 2-18 h
IRAK3 = IRAK3 (UniProt Q9Y616)
JAK1 = JAK1 (UniProt P23458)
LCK = LCK (UniProt P06239)
LIMK1 = LIMK1 (UniProt P53667)
LIMK2 = LIMK2 (UniProt P53671)
LMTK2 = LMTK2 (UniProt Q8IWU2)
LYN = LYN (UniProt P07948)
MAP2K1 = MAP2K1 (UniProt Q02750)
MAP2K2 = MAP2K2 (UniProt P36507)
MAP4K2 = MAP4K2 (UniProt Q12851)
MAPK1 = MAPK1 (UniProt P28482)
MAPK4 = MAPK4 (UniProt P31152)
MAPKAPK2 = MAPKAPK2 (UniProt P49137)
MKNK1 = MKNK1 (UniProt Q9BUB5)
NTRK2 = NTRK2 (UniProt Q16620)
NTRK3 = NTRK3 (UniProt Q16288)
PAK4 = PAK4 (UniProt O96013)
PBK = PBK (UniProt Q96KB5)
PDGFRB = PDGFRB (UniProt P09619)
PDK1 = PDK1 (UniProt Q15118)

Row | SMILES | kinase-Nluc reporter destabilization hit call (IRAK3) | kinase-Nluc reporter destabilization hit call (JAK1) | kinase-Nluc reporter destabilization hit call (LCK) | kinase-Nluc reporter destabilization hit call (LIMK1) | kinase-Nluc reporter destabilization hit call (LIMK2) | kinase-Nluc reporter destabilization hit call (LMTK2) | kinase-Nluc reporter destabilization hit call (LYN) | kinase-Nluc reporter destabilization hit call (MAP2K1) | kinase-Nluc reporter destabilization hit call (MAP2K2) | kinase-Nluc reporter destabilization hit call (MAP4K2) | kinase-Nluc reporter destabilization hit call (MAPK1) | kinase-Nluc reporter destabilization hit call (MAPK4) | kinase-Nluc reporter destabilization hit call (MAPKAPK2) | kinase-Nluc reporter destabilization hit call (MKNK1) | kinase-Nluc reporter destabilization hit call (NTRK2) | kinase-Nluc reporter destabilization hit call (NTRK3) | kinase-Nluc reporter destabilization hit call (PAK4) | kinase-Nluc reporter destabilization hit call (PBK) | kinase-Nluc reporter destabilization hit call (PDGFRB) | kinase-Nluc reporter destabilization hit call (PDK1)
1 | CCCCC(=O)OCC(=O)[C@]1(O)Cc2c(O)c3c(c(O)c2[C@@H](O[C@H]2C[C@H](NC(=O)C(F)(F)F)[C@H](O)[C@H](C)O2)C1)C(=O)c1c(OC)cccc1C3=O [Valrubicin] (10 µM) | inactive: 0 | inactive: 0 | inactive: 0 | inactive: 0 | inactive: 0 | inactive: 0 | inactive: 0 | inactive: 0 | inactive: 0 | inactive: 0 | inactive: 0 | inactive: 0 | inactive: 0 | inactive: 0 | inactive: 0 | inactive: 0 | inactive: 0 | inactive: 0 | inactive: 0 | inactive: 0
2 | CN1C(=O)[C@@H](NC(=O)c2cc(Cc3ccccc3)on2)COc2ccccc21 (10 µM) | inactive: 0 | inactive: 0 | inactive: 0 | inactive: 0 | inactive: 0 | inactive: 0 | inactive: 0 | inactive: 0 | inactive: 0 | inactive: 0 | inactive: 0 | inactive: 0 | inactive: 0 | inactive: 0 | inactive: 0 | inactive: 0 | inactive: 0 | inactive: 0 | inactive: 0 | inactive: 0
3 | Cc1nn(CC(F)(F)F)cc1Nc1ncc(Br)c(NCc2ccc(S(N)(=O)=O)cc2)n1 (10 µM) | inactive: 0 | inactive: 0 | inactive: 0 | inactive: 0 | inactive: 0 | inactive: 0 | inactive: 0 | inactive: 0 | inactive: 0 | inactive: 0 | inactive: 0 | inactive: 0 | inactive: 0 | inactive: 0 | inactive: 0 | inactive: 0 | inactive: 0 | inactive: 0 | inactive: 0 | inactive: 0
4 | Cc1ccc2c(NS(=O)(=O)c3ccccc3Cl)cccc2c1Oc1ncccc1-c1ccnc(N[C@H]2CCCNC2)n1 (2.5 µM) | inactive: 0 | inactive: 0 | inactive: 0 | inactive: 0 | inactive: 0 | inactive: 0 | inactive: 0 | inactive: 0 | inactive: 0 | inactive: 0 | inactive: 0 | inactive: 0 | inactive: 0 | inactive: 0 | inactive: 0 | inactive: 0 | inactive: 0 | inactive: 0 | inactive: 0 | inactive: 0
5 | Cc1ccc(NC(=O)N2CCN(c3nc(N)nc4sc(-c5cccnc5)nc34)CC2)cc1 [PI4KIII beta inhibitor 3] (10 µM) | inactive: 0 | inactive: 0 | inactive: 0 | inactive: 0 | inactive: 0 | inactive: 0 | inactive: 0 | inactive: 0 | inactive: 0 | inactive: 0 | inactive: 0 | inactive: 0 | inactive: 0 | inactive: 0 | inactive: 0 | inactive: 0 | inactive: 0 | inactive: 0 | inactive: 0 | inactive: 0
6 | Cc1cccc(-c2nn3c(c2-c2ccnc4ccc(C(N)=O)cc24)CCC3)n1 [Galunisertib] (10 µM) | inactive: 0 | inactive: 0 | inactive: 0 | inactive: 0 | inactive: 0 | inactive: 0 | inactive: 0 | inactive: 0 | inactive: 0 | inactive: 0 | inactive: 0 | inactive: 0 | inactive: 0 | inactive: 0 | inactive: 0 | – | inactive: 0 | inactive: 0 | inactive: 0 | inactive: 0
7 | CCOc1cc(N2CCC(O)CC2)ccc1Nc1ncc2c(n1)N(C1CCCC1)CCC(=O)N2C (2.5 µM) | inactive: 0 | inactive: 0 | inactive: 0 | inactive: 0 | inactive: 0 | inactive: 0 | inactive: 0 | inactive: 0 | inactive: 0 | inactive: 0 | inactive: 0 | inactive: 0 | inactive: 0 | inactive: 0 | – | inactive: 0 | inactive: 0 | inactive: 0 | inactive: 0 | inactive: 0
8 | O=c1cc(-c2ccc(O[C@@H]3O[C@H](CO)[C@@H](O)[C@H](O)[C@H]3O)cc2)oc2cc(O)c([C@@H]3O[C@H](CO)[C@@H](O)[C@H](O)[C@H]3O[C@@H]3OC[C@H](O)[C@H](O)[C@H]3O)c(O)c12 [Vaccarin] (10 µM) | inactive: 0 | inactive: 0 | inactive: 0 | inactive: 0 | inactive: 0 | inactive: 0 | inactive: 0 | inactive: 0 | inactive: 0 | inactive: 0 | inactive: 0 | inactive: 0 | inactive: 0 | inactive: 0 | inactive: 0 | inactive: 0 | inactive: 0 | inactive: 0 | inactive: 0 | inactive: 0
9 | CN1CCN(c2ccc(-n3cc(-c4ccncc4OCC4CCNCC4)cn3)cc2)CC1 [MELK-8a (hydrochloride)] (10 µM) | inactive: 0 | inactive: 0 | inactive: 0 | inactive: 0 | inactive: 0 | inactive: 0 | inactive: 0 | inactive: 0 | inactive: 0 | inactive: 0 | inactive: 0 | inactive: 0 | inactive: 0 | inactive: 0 | inactive: 0 | inactive: 0 | inactive: 0 | inactive: 0 | inactive: 0 | inactive: 0
10 | CN1CCN(Cc2ccc(-c3cnc4[nH]cc(-c5ccc6[nH]ccc6c5)c4c3)cc2)CC1 (2.5 µM) | inactive: 0 | inactive: 0 | inactive: 0 | inactive: 0 | inactive: 0 | inactive: 0 | inactive: 0 | inactive: 0 | inactive: 0 | inactive: 0 | inactive: 0 | inactive: 0 | inactive: 0 | inactive: 0 | inactive: 0 | inactive: 0 | inactive: 0 | inactive: 0 | inactive: 0 | inactive: 0
11 | COc1cc2nnc(C(N)=O)c(Nc3ccc(C)cc3F)c2cc1N1CCN(CCO)CC1 (2.5 µM) | inactive: 0 | inactive: 0 | inactive: 0 | inactive: 0 | inactive: 0 | inactive: 0 | inactive: 0 | inactive: 0 | inactive: 0 | inactive: 0 | inactive: 0 | inactive: 0 | inactive: 0 | inactive: 0 | – | inactive: 0 | inactive: 0 | inactive: 0 | inactive: 0 | inactive: 0
12 | CN1CCC(Nc2nc(Nc3ccc(Oc4ccccc4)cc3)c3c(=O)[nH]cc(Br)c3n2)CC1 (2.5 µM) | inactive: 0 | inactive: 0 | inactive: 0 | active: 1 | active: 1 | inactive: 0 | inactive: 0 | inactive: 0 | inactive: 0 | inactive: 0 | inactive: 0 | inactive: 0 | inactive: 0 | inactive: 0 | inactive: 0 | inactive: 0 | inactive: 0 | inactive: 0 | inactive: 0 | inactive: 0
13 | CNCc1cc(Oc2ccc3c(ccn3C(=O)Nc3cc(C(F)(F)F)n(C)n3)c2)ncn1 [Acrizanib] (10 µM) | inactive: 0 | inactive: 0 | inactive: 0 | inactive: 0 | inactive: 0 | inactive: 0 | inactive: 0 | inactive: 0 | inactive: 0 | inactive: 0 | inactive: 0 | inactive: 0 | inactive: 0 | inactive: 0 | inactive: 0 | inactive: 0 | inactive: 0 | inactive: 0 | inactive: 0 | inactive: 0
14 | CCOC(=O)c1c(C)[nH]c(C=C2C(=O)Nc3ccccc32)c1C (10 µM) | inactive: 0 | inactive: 0 | inactive: 0 | inactive: 0 | inactive: 0 | inactive: 0 | inactive: 0 | inactive: 0 | inactive: 0 | inactive: 0 | inactive: 0 | inactive: 0 | inactive: 0 | inactive: 0 | inactive: 0 | inactive: 0 | inactive: 0 | inactive: 0 | inactive: 0 | inactive: 0
15 | Cn1c(N2CCO[C@@H](c3ccc(F)cc3)C2)nc(-c2ccncn2)cc1=O (10 µM) | inactive: 0 | inactive: 0 | inactive: 0 | inactive: 0 | inactive: 0 | inactive: 0 | inactive: 0 | inactive: 0 | inactive: 0 | inactive: 0 | inactive: 0 | inactive: 0 | inactive: 0 | inactive: 0 | inactive: 0 | inactive: 0 | inactive: 0 | inactive: 0 | inactive: 0 | inactive: 0
16 | COc1cc(Nc2ccnc3ccc(Br)cc23)cc(OC)c1OC (2.5 µM) | inactive: 0 | inactive: 0 | inactive: 0 | inactive: 0 | inactive: 0 | inactive: 0 | inactive: 0 | inactive: 0 | inactive: 0 | inactive: 0 | inactive: 0 | inactive: 0 | inactive: 0 | inactive: 0 | inactive: 0 | inactive: 0 | inactive: 0 | inactive: 0 | inactive: 0 | inactive: 0
17 | CC1(C)C=Cc2c(ccc(C(=O)/C=C/c3ccc(O)cc3)c2O)O1 [4-Hydroxylonchocarpin] (10 µM) | inactive: 0 | inactive: 0 | inactive: 0 | inactive: 0 | inactive: 0 | inactive: 0 | inactive: 0 | inactive: 0 | inactive: 0 | inactive: 0 | inactive: 0 | inactive: 0 | inactive: 0 | inactive: 0 | inactive: 0 | inactive: 0 | inactive: 0 | inactive: 0 | inactive: 0 | inactive: 0
18 | C[C@@H](NC(=O)c1ncnc(N)c1Cl)c1ncc(C(=O)Nc2cc(C(F)(F)F)c(Cl)cn2)s1 (2.5 µM) | inactive: 0 | inactive: 0 | inactive: 0 | inactive: 0 | inactive: 0 | inactive: 0 | inactive: 0 | inactive: 0 | inactive: 0 | inactive: 0 | inactive: 0 | inactive: 0 | inactive: 0 | inactive: 0 | inactive: 0 | inactive: 0 | inactive: 0 | inactive: 0 | inactive: 0 | inactive: 0

Entries of single compounds as entered above. Order of values: kinase-Nluc reporter destabilization hit call (IRAK3)	kinase-Nluc reporter destabilization hit call (JAK1)	kinase-Nluc reporter destabilization hit call (LCK)	kinase-Nluc reporter destabilization hit call (LIMK1)	kinase-Nluc reporter destabilization hit call (LIMK2)	kinase-Nluc reporter destabilization hit call (LMTK2)	kinase-Nluc reporter destabilization hit call (LYN)	kinase-Nluc reporter destabilization hit call (MAP2K1)	kinase-Nluc reporter destabilization hit call (MAP2K2)	kinase-Nluc reporter destabilization hit call (MAP4K2)	kinase-Nluc reporter destabilization hit call (MAPK1)	kinase-Nluc reporter destabilization hit call (MAPK4)	kinase-Nluc reporter destabilization hit call (MAPKAPK2)	kinase-Nluc reporter destabilization hit call (MKNK1)	kinase-Nluc reporter destabilization hit call (NTRK2)	kinase-Nluc reporter destabilization hit call (NTRK3)	kinase-Nluc reporter destabilization hit call (PAK4)	kinase-Nluc reporter destabilization hit call (PBK)	kinase-Nluc reporter destabilization hit call (PDGFRB)	kinase-Nluc reporter destabilization hit call (PDK1)
`Cc1ccc2c(NS(=O)(=O)c3ccccc3Cl)cccc2c1Oc1ncccc1-c1ccnc(N[C@H]2CCCNC2)n1` (2.5 µM) is entered as inactive: 0	inactive: 0	inactive: 0	inactive: 0	inactive: 0	inactive: 0	inactive: 0	inactive: 0	inactive: 0	inactive: 0	inactive: 0	inactive: 0	inactive: 0	inactive: 0	inactive: 0	inactive: 0	inactive: 0	inactive: 0	inactive: 0	inactive: 0
`O=c1cc(-c2ccc(O[C@@H]3O[C@H](CO)[C@@H](O)[C@H](O)[C@H]3O)cc2)oc2cc(O)c([C@@H]3O[C@H](CO)[C@@H](O)[C@H](O)[C@H]3O[C@@H]3OC[C@H](O)[C@H](O)[C@H]3O)c(O)c12` [Vaccarin] (10 µM) is entered as inactive: 0	inactive: 0	inactive: 0	inactive: 0	inactive: 0	inactive: 0	inactive: 0	inactive: 0	inactive: 0	inactive: 0	inactive: 0	inactive: 0	inactive: 0	inactive: 0	inactive: 0	inactive: 0	inactive: 0	inactive: 0	inactive: 0	inactive: 0
